In patent EP2500357A2 one finds binding data, which are given here for one molecule.

Amino acid sequences for entries named in this document (tags omitted).
UniProt P11836: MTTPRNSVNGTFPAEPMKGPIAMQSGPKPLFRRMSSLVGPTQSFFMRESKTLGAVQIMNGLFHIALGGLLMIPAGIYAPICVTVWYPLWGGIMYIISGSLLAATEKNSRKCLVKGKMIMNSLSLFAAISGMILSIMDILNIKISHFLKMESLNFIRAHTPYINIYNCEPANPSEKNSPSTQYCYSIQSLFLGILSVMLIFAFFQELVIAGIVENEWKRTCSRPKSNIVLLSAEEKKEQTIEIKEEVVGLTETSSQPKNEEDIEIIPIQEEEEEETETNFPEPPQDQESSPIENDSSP

The target in the test is human CD20 on Raji B cells (human) (UniProt P11836). The test is described as follows: flow cytometry staining of Raji B cells. (In general: Flow cytometry measures light scatter and fluorescence of single cells or particles in a stream.)

No constants are given. Whether binding was seen depends on the method and setting. Some binding calls cover weakened binding; strength is not graded here.

B1: murine anti-human-CD20 mAb clone 5F1 (antibody, V domains shown)
VH: QVQLRQPGAELVKPGASVKMSCKASGYTFTSYNMHWVKQTPGQGLEWIGAIYPGNGDTSYNQKFKGKATLTADKSSSTAYMQLSSLTSEDSAVYYCARSHYGSNYVDYFDYWGQGTTLTVSS
VL: QIVLSQSPAILSASPGEKVTMTCRASSSLSFMHWYQQKPGSSPKPWIYATSNLASGVPARFSGSGSGTSYSLTISRVEAEDAATYFCHQWSSNPLTFGAGTKLELKR
For B1, the binding entry is on record as “binds”.
